Literature values in patent US12533309B2, “Minoxidil adjuvant therapies” (JUPITER WELLNESS, INC., priority 2018, dated 2026).
At least one compound was matched to its structure with a doubt left.

System: androgenetic alopecia (AGA)
Conditions: cited from earlier work

## Nc1cc(N2CCCCC2)nc(N)[n+]1[O-] [minoxidil]
Following 16 weeks of therapy, clinical trials
  patients regrow hair: 30-40%
General population, AGA, Olsen et al. 2007
  patients respond to the drug: 39%
